From PubChem BioAssay AID2685 (National Center for Advancing Translational Sciences (NCATS), 2010)
The list shows a part of the results. These are further read-outs of the screen, such as a control signal, another cell line or another target. No call is given for them. The list favours compounds with an active or inconclusive main result. Words in brackets tell the shape of the fitted curve; partial curves, single points and poor fits give uncertain potencies.

Assay: qHTS Assay for Lipid Storage Modulators in Drosophila S3 Cells;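 as to cell number change: cells counted by Cell Tracker Red CMTPX staining in the red channel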
Conditions: BODIPY lipid droplet fluorescence, 18-24 h; for cell number change: measured here: cell count max response, cells fed with added oleic acid
Method in brief: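 Drosophila S3 cells got compounds at several concentrations plus oleic acid (400 uM solution). Laser-scanning cytometry with 488 nm excitation read lipid droplets at 500-530 nm and cells at 575-640 nm. Percent activity was relative to 20 uM Triacsin C.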

[1] = measured here: lipid fluorescence (Fed channel) AC50, cells fed with added oleic acid
[2] = measured here: cell number channel AC50, cells fed with added oleic acid

| Structure (SMILES) | cell number change [%] | AC50 [1] | AC50 [2] |
| --- | --- | --- | --- |
| O=C(COc1ccc(-c2ccccc2)cc1)N/N=C/c1cc(O)ccc1Br | -18.8 | 29.1 µM [falling, single point] | – |
| CC(=O)NC1(c2ccccc2)CCN(CC(=O)N2CCC(C)CC2)CC1 | 18.1 | – | – |
| O=C(COc1cccnc1[N+](=O)[O-])NCCc1ccc(Cl)cc1Cl | -23.9 | 16.4 µM [falling, partial curve] | – |
| Cc1cccn2c(=O)c(/C=N/O)c(N3CCOCC3)nc12 | – | 6.51 µM [rising, single point] | – |
| Cc1c(C(=O)NCc2ccc3c(c2)OCO3)oc2ccc(S(=O)(=O)N3CCCCC3)cc12 | 51.3 | 13 µM [rising, partial curve] | 7.31 µM [rising, partial curve] |
| O=C(Cc1c[nH]c2ccccc12)N[C@@H](Cc1c[nH]c2ccccc12)C(=O)O | -5.9 | 25.9 µM [rising, partial curve] | – |
| CCCn1nc(NC(=O)CC(C)C)c2cc3ccccc3nc21 | 20.6 | 4.11 µM [falling, single point] | – |
| COc1ccc(OC)c(/C=C/C(=O)c2ccc3c(c2)OCO3)c1 | -16.3 | 20.6 µM [falling, single point] | – |
| Cc1ccc(NC2(C(F)(F)F)N=C(c3ccccc3)NC2=O)nc1 (configuration not stated) | -16.6 | 6.51 µM [falling, full curve, poor fit] | – |
| CCc1noc(C)c1C(=O)Nc1cc(S(=O)(=O)N2CCOCC2)ccc1N1CCN(CC)CC1 | -8.56 | 6.51 µM [falling, single point] | 0.651 µM [falling, single point] |
| Cc1onc(-c2c(F)cccc2Cl)c1C(=O)NCC1COc2ccccc2O1 (configuration not stated) | 14.5 | – | – |
| Cc1sc2ncn(CC(=O)N3CCC(C(N)=O)CC3)c(=O)c2c1S(=O)(=O)N1CC(C)CC(C)C1 (configuration not stated) | 18.5 | 0.58 µM [falling, single point] | – |
| COc1ccc(Nc2nc3c(c(=O)n(C)c(=O)n3C)n2CCO)cc1 | 16 | 0.651 µM [falling, single point] | – |
| CCOC(=O)Cn1nc(C)c(NC(=O)COc2ccccc2[N+](=O)[O-])c1C | 36.8 | 5.8 µM [rising, full curve, poor fit] | 29.1 µM [rising, single point] |
| Cc1ccc(NC(=O)CN2C(=O)S/C(=C\c3cccn3-c3cccc(C(=O)O)c3)C2=O)c(C)c1 | -17.7 | 32.6 µM [falling, single point] | – |
| Cc1nn2c(-c3ccco3)nnc2c2ccccc12 | -1.84 | 11.6 µM [falling, partial curve] | – |
| CN1CCN(C(=O)c2cccn(Cc3cccc(Cl)c3)c2=O)CC1 | -5.08 | – | – |
| CCC(=O)Nc1cccc(NC(=S)NC(=O)c2cc3ccccc3o2)c1 | -56.7 | 29.1 µM [falling, single point] | 16.4 µM [falling, single point] |
| Cc1ccc(N2C(=O)Nc3cc(Cl)c(Cl)cc3N2O)cc1Cl | 11.7 | 0.00461 µM [rising, full curve, poor fit] | – |

Random excerpt: 2 compounds from above, in no set order.

| Structure (SMILES) | cell number change [%] | AC50 [1] | AC50 [2] |
| --- | --- | --- | --- |
| Cc1ccc(NC2(C(F)(F)F)N=C(c3ccccc3)NC2=O)nc1 (configuration not stated) | -16.6 | 6.51 µM [falling, full curve, poor fit] | – |
| CCCn1nc(NC(=O)CC(C)C)c2cc3ccccc3nc21 | 20.6 | 4.11 µM [falling, single point] | – |

Following part

| Structure (SMILES) | cell number change [%] | AC50 [1] | AC50 [2] |
| --- | --- | --- | --- |
| Cn1c2c(c(=O)[nH]c1=O)C(NC(=O)c1ccco1)(C(F)(F)F)C(=O)N2 (configuration not stated) | -39.3 | 29.1 µM [falling, single point] | 29.1 µM [falling, single point] |
| Cc1cccc(CS(=O)(=O)c2nnc([C@H](Cc3ccccc3)NC(=O)OC(C)(C)C)o2)c1 | -82 | 16.4 µM [falling, single point] | 23.1 µM [falling, partial curve] |
| COC(=O)Cn1c(SCc2ccccc2)nc2ccccc21 | 20.3 | 2.06 µM [falling, partial curve] | 0.651 µM [rising, full curve, poor fit] |
| CCN(CC)C(=O)Cn1cc(S(=O)(=O)CC(=O)Nc2ccc(OC)c(OC)c2)c2ccccc21 | 2 | – | – |
| CCOC(=O)c1c(NC(=O)CSc2nnc(-c3ccccc3)n2CC)sc(C(C)=O)c1C | -21.1 | 0.517 µM [rising, partial curve] | – |
| CCOCCc1nnc(NC(=O)CS(=O)(=O)c2ccc(C)cc2)s1 | 22.1 | 1.16 µM [rising, single point] | – |
| Cc1ccccc1COc1ccc(/C=N/NC(=O)c2nnn(-c3nonc3N)c2CN2CCC(C)CC2)cc1 | 95 | 6.51 µM [rising, single point] | 7.31 µM [rising, full curve] |
| O=C(Nc1ccc2oc(-c3cccnc3)nc2c1)c1ccc([N+](=O)[O-])o1 | – | 4.11 µM [falling, full curve] | – |
| COc1ccc(-n2ccn(CC(=O)Nc3ccccc3OC)c(=O)c2=O)cc1 | 11.6 | – | – |
| C[N+](C)(C)CCOC(=O)C1(c2ccccc2)CCCC1 | -9.51 | – | – |
| CCOC(=O)c1ccc(N2CCOCC2)c(NS(=O)(=O)c2ccc(F)cc2)c1 | 13.5 | 0.461 µM [rising, full curve] | – |
| O=C(N/N=C/c1ccco1)c1ccc2nc[nH]c2c1 | -9.04 | 0.092 µM [falling, full curve, poor fit] | – |
| COC(=O)C1CCN(c2nc3ccccc3nc2C(C#N)C(=O)NCCc2ccccc2)CC1 (configuration not stated) | -21.4 | 0.00461 µM [falling, full curve, poor fit] | – |
| COc1ccc(S(=O)(=O)N(C)CC(=O)Nc2ccccc2OC)cc1C | 99.2 | 23.1 µM [rising, partial curve] | 16.4 µM [rising, partial curve] |
| O=C(Cn1cc(F)c(=O)[nH]c1=O)NCCO | – | – | 0.13 µM [rising, full curve, poor fit] |
| COc1ccc(OC)c(NC(=O)CCCC(=O)NC2CCCCC2)c1 | – | 0.146 µM [falling, full curve, poor fit] | – |
| CC(=O)Nc1ccc(C(=O)CS(=O)(=O)c2ccc(C)cc2)cc1 | 19 | – | – |
| Cc1ccccc1NC(=O)c1cc(S(=O)(=O)c2ccccc2)ccc1Cl | 27.5 | 1.84 µM [rising, partial curve] | – |
